Assay results: PubChem BioAssay AID743255 (National Center for Advancing Translational Sciences (NCATS), 2014)
In all, about 390,000 compounds went through this assay and about 910 (0.23%) were called active. This list was built around the results that the source calls inconclusive (neither active nor inactive); the mix of calls is not that of the screen. The call rests on the fitted dose curve; in most records, active means well fitted inhibition curve with a large enough effect; inconclusive means small, poorly fitted or top-dose-only effect; inactive means no such curve, though single readings can be large or run the other way. Where the call is inconclusive, the potency comes from a doubtful curve fit.
Further: nearly all actives have a fitted effect of over 60% in size.
Potency means the concentration at half of the fitted maximal effect.

Amino acid sequences for entries named in this document (tags omitted). A change or cut given only in a name is not applied to a line headed by its entry.
UniProt O94782: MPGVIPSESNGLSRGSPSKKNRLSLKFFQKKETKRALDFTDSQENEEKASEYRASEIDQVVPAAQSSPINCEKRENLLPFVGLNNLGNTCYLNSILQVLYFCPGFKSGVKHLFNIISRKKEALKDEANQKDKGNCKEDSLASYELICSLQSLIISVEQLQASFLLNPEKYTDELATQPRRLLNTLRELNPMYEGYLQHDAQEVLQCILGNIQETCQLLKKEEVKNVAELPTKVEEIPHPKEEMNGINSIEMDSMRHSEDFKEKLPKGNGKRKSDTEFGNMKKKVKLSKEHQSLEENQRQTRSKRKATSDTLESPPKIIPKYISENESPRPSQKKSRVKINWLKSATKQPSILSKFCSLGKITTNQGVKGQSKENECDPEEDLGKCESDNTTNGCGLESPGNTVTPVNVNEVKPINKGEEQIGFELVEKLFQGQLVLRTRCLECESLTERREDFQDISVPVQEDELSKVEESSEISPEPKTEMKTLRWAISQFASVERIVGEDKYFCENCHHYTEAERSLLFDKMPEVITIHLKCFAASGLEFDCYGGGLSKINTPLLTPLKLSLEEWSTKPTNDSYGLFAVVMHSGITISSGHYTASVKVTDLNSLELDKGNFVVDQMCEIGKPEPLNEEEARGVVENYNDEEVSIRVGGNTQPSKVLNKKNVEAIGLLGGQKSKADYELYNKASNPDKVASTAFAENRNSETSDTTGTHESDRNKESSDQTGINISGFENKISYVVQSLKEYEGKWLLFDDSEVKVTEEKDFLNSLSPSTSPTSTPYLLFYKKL

The compounds below were run against Ubiquitin carboxyl-terminal hydrolase 1 (Homo sapiens) (UniProt O94782) (assay: Inhibitors of USP1/UAF1: Primary Screen). Conditions: recombinant USP1/UAF1, Ub-Rhodamine cleavage fluorescence; series mostly up to 57.1 µM.
How it was run: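 USP1/UAF1 complex at 1 nM was preincubated with compound for 15 min at room temperature, then Ub-Rho substrate (150nM final) was added. Fluorescence (480/540 nm) was read kinetically, 6 reads every 60 seconds.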
For `COc1ccc(Cc2nnc(NC(=O)Cc3cccs3)s2)cc1`, the Potency was inconclusive: 44.7 µM [inhibitor, partial curve, poor fit].
In the case of `O=C(COC(=O)c1ccc(Br)cc1)NCC1CCCO1` (stereo not given), the Potency was inconclusive: 20 µM [inhibitor, partial curve].
`Cc1ccc(O)c(C(=O)c2cc(C#N)c(=O)n(Cc3ccccc3)c2)c1` was tested, and the Potency was “inactive”.
In the case of `O=C(CSc1ncc(C(F)(F)F)cc1Cl)N1CCNC1=O`, the Potency was “inactive”.
With `CCOc1ccc(CNC(=O)c2ccc3c(c2)c(C)c(C)n3Cc2ccc(Cl)cc2)cc1` the Potency was inconclusive: 5.01 µM [inhibitor, single point].
With `C=CCOC(=O)C1=C[C@@H](c2ccc(C(F)(F)F)cc2)[C@H](CCCO)[C@@H](OCC)O1` the Potency was inconclusive: 2.51 µM [inhibitor, full curve, poor fit].
In the case of `C[C@@H](NC(=O)c1nc[nH]c1C(=O)N[C@@H](Cc1ccccc1)C(=O)OC(C)(C)C)c1ccccc1`, the Potency was inconclusive: 28.2 µM [inhibitor, partial curve].
In the case of `O=C(NNc1cc(Cl)cc(Cl)c1)C1CCC1`, the Potency was inconclusive: 5.01 µM [inhibitor, single point].
With `O=C(CSCc1nc2cccnc2n1C1CCCCC1)NCc1cccc(Cl)c1` the Potency was inconclusive: 10 µM [inhibitor, full curve, poor fit].
For `Cc1cccc(N=C2NC(=O)/C(=C/c3cn(C)c4ccccc34)S2)c1`, the Potency was inconclusive: 14.1 µM [inhibitor, single point].
`Cc1cn(C)c(CC(=O)NCc2ccccc2Cl)c1C(=O)O` was tested, and the Potency was “inactive”.
With `COc1cccc(C(c2c(C)[nH]n(-c3ccccc3)c2=O)c2c(C)[nH]n(-c3ccccc3)c2=O)c1OC` the Potency was “inactive”.
In the case of `COc1ccc(-c2cc(C(=O)O)nc3ccc4ccccc4c23)cc1OC`, the Potency was inconclusive: 56.2 µM [inhibitor, partial curve, poor fit].
`COc1cc(OC)c(NS(=O)(=O)c2cc(-c3cnc(C)o3)ccc2OC)cc1Cl` was tested, and the Potency was “inactive”.
`O=C(NC(=S)N1CCCCC1c1cccnc1)c1ccc(F)cc1` (stereo not given) was tested, and the Potency was inconclusive: 44.7 µM [inhibitor, partial curve, poor fit].
In the case of `Cc1cc(=O)oc2cc(OCC(=O)c3ccc4c(c3)NC(=O)CO4)ccc12`, the Potency was inconclusive: 3.98 µM [inhibitor, full curve].
With `COC(=O)c1cc2occc2n1Cc1cccc(C)c1` the Potency was “inactive”.
For `COc1ccc(C(=O)N2CCC(c3nc(-c4ccc(S(=O)(=O)N5CCCC5)cc4)no3)CC2)cc1`, the Potency was inconclusive: 0.794 µM [inhibitor, full curve, poor fit].
For `O=Cc1ccc(N2Cc3ccccc3C2)cc1`, the Potency was inconclusive: 44.7 µM [inhibitor, partial curve, poor fit].
For `COC(=O)CCCC1=CC2=C(c3ccccc3)C(=O)C(C)(OC(=O)C3CCCC3)C(=O)C2=CN1C1CC1` (stereo not given), the Potency was inconclusive: 35.5 µM [inhibitor, partial curve].
For `Cc1ccc(C(=O)Nc2onc3c2CCCC3)cc1`, the Potency was “inactive”.
`CC(OC(=O)c1ccc2ccccc2c1)C(=O)N(C)Cc1ccccc1` (stereo not given) was tested, and the Potency was “inactive”.
In the case of `CC(=O)Nc1nonc1-c1nnc(SCC(=O)Nc2ccc(C)c(Cl)c2)n1-c1ccccc1`, the Potency was inconclusive: 0.398 µM [inhibitor, full curve, poor fit].
`O=C(NCC1CCCO1)c1nc(Cn2ccc([N+](=O)[O-])n2)no1` (stereo not given) was tested, and the Potency was inconclusive: 14.1 µM [inhibitor, partial curve].
In the case of `COc1ccccc1N(CC(=O)NCCN1CCOCC1)S(=O)(=O)c1ccccc1`, the Potency was inconclusive: 7.08 µM [inhibitor, partial curve, poor fit].
In the case of `CON(C)C(=O)CC1(CN(Cc2ccccc2)C(=O)OC(C)(C)C)CCCCC1`, the Potency was “inactive”.
`CCOc1ccc(CCNC(=O)c2cc3sccc3n2C)cc1OCC` was tested, and the Potency was inconclusive: 25.1 µM [inhibitor, partial curve].
With `COC(=O)c1ccc(C(=O)OC)c(NC(=O)CSc2n[nH]c(N)n2)c1` the Potency was inconclusive: 7.08 µM [inhibitor, single point].
With `Cc1ccccc1CCNC(=O)C1CCCN(c2cnccn2)C1` (stereo not given) the Potency was inconclusive: 44.7 µM [inhibitor, partial curve].
For `Cc1ccc(-n2ncc3c(Nc4ccccc4C)ncnc32)cc1`, the Potency was inconclusive: 8.91 µM [inhibitor, partial curve, poor fit].
With `CC1CCN(S(=O)(=O)c2ccc(NC(=O)Cc3ccccc3)cc2)CC1` the Potency was inconclusive: 0.562 µM [inhibitor, full curve, poor fit].
In the case of `CCC(C(=O)NCc1ccccc1Cl)n1nc(C)c2sc3ccccc3c2c1=O` (stereo not given), the Potency was inconclusive: 158 µM [inhibitor, partial curve, poor fit].
In the case of `Cc1ccc(NC(=O)c2sc(-n3nc(C)c(Cc4ccc5c(c4)OCO5)c3C)nc2C)cc1C`, the Potency was “inactive”.
`Cc1cccc(NC(=O)CSc2nccn2-c2cccc(Cl)c2)c1C` was tested, and the Potency was inconclusive: 7.94 µM [inhibitor, partial curve, poor fit].
`Cc1cccc(C2=NN(c3ccccc3)[C@@H](C(=O)N3CCOC3=O)[C@@H]2c2ccc([N+](=O)[O-])cc2)c1` was tested, and the Potency was inconclusive: 50.1 µM [inhibitor, partial curve, poor fit].
With `Cc1nn2c(C)c(C(=O)NCC(C)c3ccccc3)cnc2c1-c1ccccc1` (stereo not given) the Potency was “inactive”.
With `CCN(CC)CCOC(=O)c1ccc(NC(=O)CCCN2C(=O)S/C(=C/c3ccc(OC)cc3)C2=S)cc1` the Potency was inconclusive: 44.7 µM [inhibitor, partial curve, poor fit].
With `CC1CCc2nn(CC(=O)N3CCN(C(=O)c4ccco4)CC3)cc2C1` (stereo not given) the Potency was inconclusive: 0.251 µM [inhibitor, full curve, poor fit].
For `COc1cccc(NC(=O)N(C)C[C@H]2OCc3cnnn3CCCC(=O)N([C@H](C)CO)C[C@@H]2C)c1`, the Potency was inconclusive: 44.7 µM [inhibitor, partial curve].
`O=C(CCCN1C(=O)/C(=C\c2ccccc2)SC1=S)Nc1ccc(C(=O)O)cc1` was tested, and the Potency was inconclusive: 35.5 µM [inhibitor, single point].
